17 targets from the supplement of paper PMC10849652 can be followed below.

Protein sequences, listed by entry. Tags and fused reporters are not part of them. Lines headed by an entry give the natural chain unless they say otherwise; changes in a name come on top.
UniProt O14526: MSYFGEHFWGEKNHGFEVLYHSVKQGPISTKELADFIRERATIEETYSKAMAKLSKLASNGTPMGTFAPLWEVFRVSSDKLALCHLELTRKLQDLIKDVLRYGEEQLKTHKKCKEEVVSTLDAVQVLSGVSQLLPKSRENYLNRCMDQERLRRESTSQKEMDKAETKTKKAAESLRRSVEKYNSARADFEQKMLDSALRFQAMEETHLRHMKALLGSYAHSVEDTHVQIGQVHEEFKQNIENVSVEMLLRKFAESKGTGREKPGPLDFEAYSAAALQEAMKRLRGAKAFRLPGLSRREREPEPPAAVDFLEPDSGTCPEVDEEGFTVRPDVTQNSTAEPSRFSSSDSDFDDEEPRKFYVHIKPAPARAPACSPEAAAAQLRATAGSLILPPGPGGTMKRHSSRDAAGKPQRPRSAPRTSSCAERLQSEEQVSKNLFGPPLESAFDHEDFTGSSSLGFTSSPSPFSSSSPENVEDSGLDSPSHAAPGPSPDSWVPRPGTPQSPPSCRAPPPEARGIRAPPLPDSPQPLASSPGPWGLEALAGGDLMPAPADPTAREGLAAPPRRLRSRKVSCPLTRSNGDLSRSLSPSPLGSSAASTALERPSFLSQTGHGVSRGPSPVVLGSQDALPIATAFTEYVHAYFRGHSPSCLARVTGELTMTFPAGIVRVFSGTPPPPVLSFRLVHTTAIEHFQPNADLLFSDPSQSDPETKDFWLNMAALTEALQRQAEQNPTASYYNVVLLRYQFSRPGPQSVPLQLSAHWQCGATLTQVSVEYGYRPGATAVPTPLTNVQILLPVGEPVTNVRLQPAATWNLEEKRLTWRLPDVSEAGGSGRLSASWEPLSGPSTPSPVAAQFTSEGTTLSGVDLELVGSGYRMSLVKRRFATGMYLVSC
UniProt Q96SL8: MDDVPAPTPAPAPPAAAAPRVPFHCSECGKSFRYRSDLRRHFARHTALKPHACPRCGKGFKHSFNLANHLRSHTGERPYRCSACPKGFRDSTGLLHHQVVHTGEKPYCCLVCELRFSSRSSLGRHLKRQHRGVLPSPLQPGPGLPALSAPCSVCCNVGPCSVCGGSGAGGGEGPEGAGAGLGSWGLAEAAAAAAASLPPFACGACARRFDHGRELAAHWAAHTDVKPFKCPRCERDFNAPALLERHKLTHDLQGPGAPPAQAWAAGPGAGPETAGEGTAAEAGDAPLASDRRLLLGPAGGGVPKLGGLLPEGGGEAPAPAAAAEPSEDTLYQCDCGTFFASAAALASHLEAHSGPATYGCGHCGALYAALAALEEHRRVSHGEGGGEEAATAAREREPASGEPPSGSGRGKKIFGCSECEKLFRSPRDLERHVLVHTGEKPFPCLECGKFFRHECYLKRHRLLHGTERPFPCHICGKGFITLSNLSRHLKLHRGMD
UniProt O15360: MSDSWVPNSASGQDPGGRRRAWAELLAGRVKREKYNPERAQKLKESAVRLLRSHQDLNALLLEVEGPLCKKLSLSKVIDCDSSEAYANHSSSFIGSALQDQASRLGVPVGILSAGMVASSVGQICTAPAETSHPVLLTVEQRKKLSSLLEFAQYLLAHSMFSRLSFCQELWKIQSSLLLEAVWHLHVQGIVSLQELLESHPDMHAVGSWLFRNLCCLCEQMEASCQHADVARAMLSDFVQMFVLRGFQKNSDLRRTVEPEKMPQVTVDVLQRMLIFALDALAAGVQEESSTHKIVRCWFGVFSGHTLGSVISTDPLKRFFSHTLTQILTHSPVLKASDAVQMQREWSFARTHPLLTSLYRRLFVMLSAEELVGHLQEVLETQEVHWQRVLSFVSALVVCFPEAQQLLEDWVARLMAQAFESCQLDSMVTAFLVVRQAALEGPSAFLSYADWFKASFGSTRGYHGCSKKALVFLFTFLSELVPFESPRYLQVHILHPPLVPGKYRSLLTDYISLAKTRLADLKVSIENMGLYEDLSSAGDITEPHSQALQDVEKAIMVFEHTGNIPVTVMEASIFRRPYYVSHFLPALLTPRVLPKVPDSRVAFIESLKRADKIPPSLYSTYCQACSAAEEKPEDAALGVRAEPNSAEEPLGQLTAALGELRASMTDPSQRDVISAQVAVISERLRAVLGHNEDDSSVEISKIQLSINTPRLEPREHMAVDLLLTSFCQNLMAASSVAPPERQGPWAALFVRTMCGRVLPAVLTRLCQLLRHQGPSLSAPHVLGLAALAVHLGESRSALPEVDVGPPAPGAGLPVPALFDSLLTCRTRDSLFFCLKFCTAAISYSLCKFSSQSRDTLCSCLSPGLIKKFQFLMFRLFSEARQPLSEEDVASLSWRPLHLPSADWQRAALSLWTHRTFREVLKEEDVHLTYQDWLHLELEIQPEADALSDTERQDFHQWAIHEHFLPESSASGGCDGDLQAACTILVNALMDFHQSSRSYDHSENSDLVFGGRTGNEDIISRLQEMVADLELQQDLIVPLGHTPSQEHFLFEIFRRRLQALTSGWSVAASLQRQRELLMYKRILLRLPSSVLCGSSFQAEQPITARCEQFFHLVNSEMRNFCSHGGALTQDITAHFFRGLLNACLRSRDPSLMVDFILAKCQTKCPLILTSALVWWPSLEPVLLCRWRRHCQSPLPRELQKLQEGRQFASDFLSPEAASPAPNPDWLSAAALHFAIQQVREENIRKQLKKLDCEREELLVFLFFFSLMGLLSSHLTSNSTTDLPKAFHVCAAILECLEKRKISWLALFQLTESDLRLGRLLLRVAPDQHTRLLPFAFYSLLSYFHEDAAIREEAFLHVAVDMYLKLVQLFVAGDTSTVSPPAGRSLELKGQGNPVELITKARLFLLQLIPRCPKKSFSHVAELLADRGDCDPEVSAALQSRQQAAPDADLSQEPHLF
UniProt Q9UKB1: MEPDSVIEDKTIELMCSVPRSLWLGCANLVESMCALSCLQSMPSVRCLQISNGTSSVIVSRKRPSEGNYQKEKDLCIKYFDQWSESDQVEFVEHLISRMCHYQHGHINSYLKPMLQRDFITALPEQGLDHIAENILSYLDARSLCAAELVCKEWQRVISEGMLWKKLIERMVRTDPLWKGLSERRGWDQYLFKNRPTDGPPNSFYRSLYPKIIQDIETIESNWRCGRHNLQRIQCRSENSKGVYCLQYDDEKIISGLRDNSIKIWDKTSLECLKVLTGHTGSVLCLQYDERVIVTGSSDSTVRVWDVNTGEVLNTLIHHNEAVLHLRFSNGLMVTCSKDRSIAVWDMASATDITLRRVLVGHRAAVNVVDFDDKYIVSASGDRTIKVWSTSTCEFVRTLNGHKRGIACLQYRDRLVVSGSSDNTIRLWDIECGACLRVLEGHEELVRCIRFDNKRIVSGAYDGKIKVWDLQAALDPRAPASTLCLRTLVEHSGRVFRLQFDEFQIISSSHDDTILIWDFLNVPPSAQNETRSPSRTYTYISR
UniProt O94887: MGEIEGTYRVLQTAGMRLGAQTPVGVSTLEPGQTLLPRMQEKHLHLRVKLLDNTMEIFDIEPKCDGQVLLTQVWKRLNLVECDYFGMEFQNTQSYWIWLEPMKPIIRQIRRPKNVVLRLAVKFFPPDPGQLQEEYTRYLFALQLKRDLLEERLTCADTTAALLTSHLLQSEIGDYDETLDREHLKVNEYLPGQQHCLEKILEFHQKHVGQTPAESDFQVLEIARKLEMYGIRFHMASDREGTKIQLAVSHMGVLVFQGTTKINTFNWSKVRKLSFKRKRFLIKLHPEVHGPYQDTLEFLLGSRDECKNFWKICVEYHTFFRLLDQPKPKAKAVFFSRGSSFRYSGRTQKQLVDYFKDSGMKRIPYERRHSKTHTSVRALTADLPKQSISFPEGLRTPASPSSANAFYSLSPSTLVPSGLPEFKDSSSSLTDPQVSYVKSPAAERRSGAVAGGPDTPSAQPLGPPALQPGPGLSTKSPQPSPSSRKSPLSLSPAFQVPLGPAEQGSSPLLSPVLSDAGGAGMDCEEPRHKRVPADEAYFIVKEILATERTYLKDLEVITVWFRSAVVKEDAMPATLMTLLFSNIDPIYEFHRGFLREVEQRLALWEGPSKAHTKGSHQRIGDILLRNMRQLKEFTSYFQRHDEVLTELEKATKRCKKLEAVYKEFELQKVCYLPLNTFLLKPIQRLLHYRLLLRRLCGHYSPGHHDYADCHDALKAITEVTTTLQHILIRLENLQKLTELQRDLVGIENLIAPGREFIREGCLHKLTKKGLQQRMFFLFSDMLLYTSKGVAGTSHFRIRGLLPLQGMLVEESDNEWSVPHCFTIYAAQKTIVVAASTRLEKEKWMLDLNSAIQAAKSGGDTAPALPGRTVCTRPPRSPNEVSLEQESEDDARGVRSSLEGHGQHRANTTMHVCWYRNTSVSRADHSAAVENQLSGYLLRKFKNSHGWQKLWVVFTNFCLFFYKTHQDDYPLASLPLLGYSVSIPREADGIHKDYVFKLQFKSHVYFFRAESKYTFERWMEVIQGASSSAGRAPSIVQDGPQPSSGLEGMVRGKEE
UniProt Q9NYF3: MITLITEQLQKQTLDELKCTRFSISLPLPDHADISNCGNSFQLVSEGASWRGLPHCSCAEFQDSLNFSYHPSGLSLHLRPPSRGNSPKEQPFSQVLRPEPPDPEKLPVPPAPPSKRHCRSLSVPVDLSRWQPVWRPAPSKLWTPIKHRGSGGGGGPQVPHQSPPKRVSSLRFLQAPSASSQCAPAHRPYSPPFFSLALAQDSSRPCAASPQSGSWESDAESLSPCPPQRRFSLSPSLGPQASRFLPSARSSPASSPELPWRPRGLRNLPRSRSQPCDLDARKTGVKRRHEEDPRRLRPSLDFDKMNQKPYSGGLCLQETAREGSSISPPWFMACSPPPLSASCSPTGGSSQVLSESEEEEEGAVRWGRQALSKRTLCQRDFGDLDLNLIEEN
UniProt Q13045: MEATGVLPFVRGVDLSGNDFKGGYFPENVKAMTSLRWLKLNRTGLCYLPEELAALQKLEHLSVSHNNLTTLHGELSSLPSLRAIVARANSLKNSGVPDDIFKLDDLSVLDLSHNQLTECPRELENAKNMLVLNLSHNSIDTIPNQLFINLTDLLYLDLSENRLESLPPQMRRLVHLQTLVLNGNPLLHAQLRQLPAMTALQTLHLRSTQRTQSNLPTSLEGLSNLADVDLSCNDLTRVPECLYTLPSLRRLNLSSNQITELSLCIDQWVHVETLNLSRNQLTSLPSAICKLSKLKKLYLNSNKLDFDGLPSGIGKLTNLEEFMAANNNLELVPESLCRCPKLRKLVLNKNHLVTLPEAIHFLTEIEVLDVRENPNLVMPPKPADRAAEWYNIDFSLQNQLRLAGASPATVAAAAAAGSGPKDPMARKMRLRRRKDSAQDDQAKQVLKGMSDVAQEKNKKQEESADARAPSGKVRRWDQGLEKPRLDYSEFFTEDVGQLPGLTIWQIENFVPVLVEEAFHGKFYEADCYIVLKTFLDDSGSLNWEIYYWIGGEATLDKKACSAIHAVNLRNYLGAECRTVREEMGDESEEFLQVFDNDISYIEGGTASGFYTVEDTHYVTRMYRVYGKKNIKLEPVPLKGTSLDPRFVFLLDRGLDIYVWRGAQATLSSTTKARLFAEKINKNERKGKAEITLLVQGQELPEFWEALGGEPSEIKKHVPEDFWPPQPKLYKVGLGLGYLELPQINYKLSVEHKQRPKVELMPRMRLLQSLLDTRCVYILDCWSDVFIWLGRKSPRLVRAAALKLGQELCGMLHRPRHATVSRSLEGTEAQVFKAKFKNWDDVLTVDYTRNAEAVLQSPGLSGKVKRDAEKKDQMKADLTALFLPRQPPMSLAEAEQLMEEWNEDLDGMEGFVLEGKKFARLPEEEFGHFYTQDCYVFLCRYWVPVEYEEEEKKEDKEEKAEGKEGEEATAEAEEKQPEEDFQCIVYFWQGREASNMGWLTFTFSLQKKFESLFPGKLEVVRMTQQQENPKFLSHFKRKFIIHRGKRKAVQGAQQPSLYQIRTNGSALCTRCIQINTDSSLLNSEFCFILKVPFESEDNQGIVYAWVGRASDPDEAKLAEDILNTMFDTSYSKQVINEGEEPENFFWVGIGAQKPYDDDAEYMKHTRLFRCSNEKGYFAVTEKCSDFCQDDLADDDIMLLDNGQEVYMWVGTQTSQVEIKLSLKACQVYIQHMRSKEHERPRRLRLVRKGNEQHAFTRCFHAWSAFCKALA
UniProt P02679: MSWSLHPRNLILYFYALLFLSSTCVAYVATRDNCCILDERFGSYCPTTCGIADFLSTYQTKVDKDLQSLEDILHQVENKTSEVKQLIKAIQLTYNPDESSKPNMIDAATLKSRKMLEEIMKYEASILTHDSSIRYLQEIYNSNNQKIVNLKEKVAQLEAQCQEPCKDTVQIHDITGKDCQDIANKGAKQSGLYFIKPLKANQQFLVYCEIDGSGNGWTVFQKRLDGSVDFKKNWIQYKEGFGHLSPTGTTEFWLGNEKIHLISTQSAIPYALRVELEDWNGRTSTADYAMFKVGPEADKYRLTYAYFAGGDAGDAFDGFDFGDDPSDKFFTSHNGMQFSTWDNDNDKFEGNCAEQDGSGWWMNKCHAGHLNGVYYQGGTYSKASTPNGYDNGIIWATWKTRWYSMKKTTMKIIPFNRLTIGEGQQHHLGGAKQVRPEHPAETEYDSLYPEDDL

The list shows a part of the results.

Experiment in all cases: log2 fold change, soluble protein after heating vs DMSO (PISA); higher = thermal stabilisation; K562 cells, 10 uM, 30 min; active = over 0.2 and 3.5 SD of the protein, either way, in both replicates (recomputed)
Compound in assay [1]: Cc1cccc(CC(=O)N2CCc3c2ccc(-c2cn(C)c4ncnc(N)c24)c3F)n1
In outline:
(§1)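 Quantification of soluble protein used TMTpro 16plex LC-MS/MS, with channel sums equalised. Samples were the supernatant after 21,000xg for 90 min of pooled aliquots from K562 cells (2×10^6 cells/mL) treated with 10 μM compound for 30 min, heated for 3 min over 48°C-58°C, and extracted in PBS with 0.5% NP-40 at 4°C. Values, from duplicates, describe thermal stability against control samples on a log2 fold-change scale.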

Compound in assay [2]: Cc1nc(Nc2ncc(C(=O)Nc3c(C)cccc3Cl)s2)cc(N2CCN(CCO)CC2)n1 [dasatinib]
In outline:
as §1

Compound in assay [3]: Cn1cc(-c2ccc3nnc(C(F)(F)c4ccc5ncccc5c4)n3n2)cn1
In outline:
as §1

Compound in assay [4]: Cn1cncc1[C@@](N)(c1ccc(Cl)cc1)c1ccc2c(c1)c(-c1cccc(Cl)c1)cc(=O)n2C [tipifarnib]
In outline: as §1

Compound in assay [5]: FC(F)(F)c1ccc(/C=C/c2nc(COc3ccc(CCCCn4ccnn4)cc3)co2)cc1 [mubritinib]
In outline:
as §1

Compound in assay [6]: NC(=O)Nc1cc(-c2cccc(F)c2)sc1C(=O)N[C@H]1CCCNC1
In outline:
as §1

Compound in assay [7]: NC1(c2ccc(-c3nc4ccn5c(=O)[nH]nc5c4cc3-c3ccccc3)cc2)CCC1
In outline: as §1

Compound in assay [8]: NCC(=O)Nc1ccc(-n2nc(C(F)(F)F)cc2-c2ccc3c(ccc4ccccc43)c2)cc1
In outline:
as §1

Compound in assay [9]: Nc1ccccc1NC(=O)c1ccc(CNC(=O)OCc2cccnc2)cc1 [entinostat]
In outline:
as §1

Compound in assay [10]: O=C(CCCCCCC(=O)Nc1ccccc1)NO [vorinostat]
In outline:
as §1

Compound in assay [11]: O=C(CCCCCCNC(=O)c1cnc(N(c2ccccc2)c2ccccc2Cl)nc1)NO [citarinostat]
In outline:
as §1

Compound in assay [12]: O=C(O)c1ccc2c(c1)nc(Nc1cccc(Cl)c1)c1ccncc12 [silmitasertib]
In outline:
as §1

Compound in assay [13]: O=C1NC(=O)C(c2cnc3ccccn23)=C1c1cn2c3c(cc(F)cc13)CN(C(=O)N1CCCCC1)CC2
In outline: as §1

Compound in assay [14]: c1cc(OCCN2CCCCC2)cc(-c2n[nH]c3ccc(-c4nnc[nH]4)cc23)c1
In outline: as §1

Compound in assay [15]: Cc1cn(-c2cc(NC(=O)c3ccc(C)c(Nc4nccc(-c5cccnc5)n4)c3)cc(C(F)(F)F)c2)cn1 [nilotinib]
In outline: as §1

Compound in assay [16]: Cc1nc(Nc2n[nH]c3c2CN(C(=O)N[C@H](CN(C)C)c2ccccc2)C3(C)C)c2sccc2n1
In outline:
as §1

Compound in assay [17]: Cc1ncc(-c2ccnc(Nc3ccc(S(C)(=O)=O)cc3)n2)n1C(C)C
In outline:
as §1

Compound in assay [18]: Cn1cc(-c2ccc3c(c2)CCN3C(=O)Cc2cccc(C(F)(F)F)c2)c2c(N)ncnc21
In outline:
as §1

Compound in assay [19]: NC(=O)c1cnc(N[C@@H]2CCCC[C@@H]2N)nc1Nc1cccc(-n2nccn2)c1
In outline: as §1

In the case of FCF1 (UniProt Q9Y324), the log2 fold change was inactive: 0.042 in [1]; inactive: 0.139 in assay [2]; inactive: -0.119 in [3]; inactive: 0.242 in [4]; inactive: -0.129 in assay [5]; inactive: 0.244 in assay [6]. For the same target, the log2 fold change was inactive: 0.097 in assay [7]; inactive: 0.36 in [8]; inactive: 0 in assay [9]; inactive: -0.045 in assay [10]; inactive: -0.137 in assay [11]; inactive: 0.099 in assay [12]. The log2 fold change in [13] was inactive: 0.349; in [14], inactive: -0.375.
Turning to FGF17 (UniProt O60258), the figures for the log2 fold change in assay [1] and in assay [10] were inactive: -0.164 and inactive: -0.191, respectively.
Turning to FCHO1 (UniProt O14526), the log2 fold change is inactive: -0.118 in [15]; inactive: -0.067 in assay [16]; inactive: -0.275 in [2]; inactive: -0.127 in [17]; inactive: 0.079 in assay [18]; inactive: 0.033 in assay [3]. Besides, the log2 fold change is inactive: -0.119 in assay [4]; inactive: -0.003 in assay [5]; inactive: -0.001 in [6]; inactive: -0.21 in [19]; inactive: -0.119 in assay [7]; inactive: 0.054 in assay [8]. In addition, the log2 fold change in assay [9] is inactive: -0.032; in [11], inactive: -0.086; in [12], inactive: -0.24; in [13], inactive: -0.102; in [14], inactive: 0.302.
On to FAM98C (UniProt Q17RN3), for which the log2 fold change is inactive: -0.071 in [1]; inactive: -0.001 in [18]; inactive: -0.562 in assay [5]; inactive: 0.164 in assay [19]; inactive: -0.185 in assay [7]; inactive: 0.019 in assay [10]. Besides, the log2 fold change in assay [12] was inactive: 0.532.
In the case of FMR1 (UniProt Q06787), the log2 fold change in [1] is inactive: -0.146; in [18] it was inactive: -0.224; in assay [3], inactive: -0.028; in assay [4] it was inactive: -0.129; in assay [5], inactive: -0.175; in assay [6], inactive: 0.086. Further, the log2 fold change was active: 0.836 in assay [7]; inactive: -0.106 in assay [9]; inactive: -0.137 in assay [10]; inactive: 0.101 in assay [11]; inactive: 0.058 in assay [12]; inactive: -0.146 in assay [14].
As to FIZ1 (UniProt Q96SL8), the log2 fold change is inactive: -0.092 in assay [1]; inactive: -0.09 in [15]; inactive: 0.065 in assay [16]; inactive: -0.026 in assay [2]; inactive: -0.213 in assay [17]; inactive: -0.137 in assay [18]. In addition, the log2 fold change in assay [5] is inactive: -0.191; in [6], inactive: 0.026; in assay [7], inactive: 0.097; in [8], inactive: 0.061; in assay [9] it was inactive: -0.257; in assay [10] it was inactive: 0.044. Besides, the log2 fold change in [11] is inactive: -0.12; in assay [12] it was inactive: -0.103; in assay [13], inactive: 0.06; in assay [14] it was inactive: 0.041.
On to FAM83G (UniProt A6ND36), for which the log2 fold change in [2] was inactive: 0.102; in [8] it was inactive: -0.039; in assay [13], inactive: -0.003.
With FBF1 isoform 6 (UniProt Q8TES7), the log2 fold change in assay [15] was inactive: -0.011; in [16], inactive: -0.017; in assay [2], inactive: -0.019; in assay [17], inactive: 0.178; in assay [19] it was inactive: -0.084.
In the case of FANCA (UniProt O15360), the log2 fold change in [11] was inactive: -0.066; in assay [14], inactive: -0.184.
As to FKBP10 (UniProt Q96AY3), the log2 fold change in assay [1] was inactive: -0.024; in [6] it was inactive: -0.032; in assay [9], inactive: 0.005; in assay [10], inactive: 0.024.
Regarding FBXW11 (UniProt Q9UKB1), the log2 fold change in assay [1] is inactive: -0.004; in assay [2], inactive: -0.077; in [18] it was inactive: -0.119; in assay [3] it was inactive: -0.094; in assay [4], inactive: 0.076; in [19] it was inactive: -0.191. Moreover, the log2 fold change is inactive: -0.131 in assay [8] and inactive: -0.01 in [10].
For FARP2 (UniProt O94887), the log2 fold change in [2] was inactive: 0.035; in assay [18] it was inactive: -0.071; in assay [4] it was inactive: 0.099; in assay [19], inactive: -0.145; in assay [8], inactive: -0.21.
FAM53C (UniProt Q9NYF3): the log2 fold change in assay [1] was inactive: -0.041; in [15], inactive: 0.353; in assay [16], inactive: -0.015; in assay [17], inactive: -0.219; in assay [18], inactive: -0.101; in assay [3], inactive: -0.118. Also, the log2 fold change in assay [4] is inactive: -0.105; in assay [6], inactive: -0.127; in assay [9], inactive: 0; in assay [10], inactive: 0.043; in [11] it was inactive: 0.049; in assay [14], inactive: -0.085.
Turning to FLII isoform 2 (UniProt Q13045), the log2 fold change in assay [18] was inactive: 0.232; in assay [3], inactive: -0.022; in assay [4], inactive: -0.033; in assay [6] it was inactive: 0.129; in [19], inactive: 0.052; in [9], inactive: 0.091. The log2 fold change in assay [13] was inactive: 0.125.
FGG (UniProt P02679): the log2 fold change in [1] is inactive: 0.165; in [3] it was inactive: -0.018; in [4], inactive: 0.127; in [10], inactive: -0.001.
For the target FMOD (UniProt Q06828), the log2 fold change in assay [19] was inactive: 0.022.
FAM222B (UniProt Q8WU58): the log2 fold change is inactive: -0.182 in [2]; inactive: 0.243 in [3]; inactive: 0.13 in assay [4]; inactive: 0.085 in [5]; inactive: 0.287 in [19]; inactive: -0.015 in [7]. The log2 fold change in assay [11] was inactive: -0.045; in assay [12] it was inactive: 0.022; in assay [13], inactive: -0.215; in assay [14], inactive: 0.071.
